A short description of the series: Yellow stains after 5,000-lux fluorescent lamp irradiation for two weeks. The note with it: increased yellow density minus blank. The method, then: Evaluation of yellow stains: Each sample was exposed to white light of 500 lux for 1 sec and subjected to the following development. The obtained samples were irradiated with a 5,000-lux fluorescent lamp for two weeks, and the yellow stain density was measured. Evaluation was done by subtracting the blank density from the increased yellow density. The smaller the value, the less yellow stains were generated.

Setting [1] is: Example 1, oil/coupler ratio 0.5.
Where [2] appears, read: Example 1, oil/coupler ratio 0.0.

Here are results for eleven molecules from patent US6468729B2, “Silver halide photographic light-sensitive material” (Fuji Photo Film Co., Ltd., priority 2000, dated 2002).

On to `CCCCCCCCCCCCCCCCCCOc1ccc(C(C)(C)C)cc1S(=O)(=O)NC(C)c1n[nH]c2cc(C(C)(C)C)nn12` (centres unmarked) [Compound G-1], for which, under setting [1], the Yellow stain amounted to 0.04.

For the molecule `CCCCCCCCCCCCCCCC(C(=O)O)C(=O)Nc1cccc(C(=O)Nc2ccc(CCCc3n[nH]c4cc(C(C)(C)C)nn34)cc2)c1` (centres unmarked) [Compound G-2], the Yellow stain is, setting by setting: under setting [2], 0.06; under setting [1], 0.14.

For `CCCCCCCCOc1ccc(C(C)(C)CC(C)(C)C)cc1S(=O)(=O)Nc1cc(S(=O)(=O)Nc2c(C)cc(C)c(-c3n[nH]c4cc(CC)nn34)c2C)ccc1Cl` [Compound G-3], the Yellow stain runs as follows: under setting [2], 0.05; under setting [1], 0.19.

As to `CCCCCCCCOc1ccc(NS(=O)(=O)c2cc(C(C)(C)CC(C)(C)C)ccc2OCCOc2ccc(C)cc2)cc1S(=O)(=O)NC(C)c1n[nH]c2cc(C(C)(C)C)nn12` (centres unmarked) [Compound G-4], the Yellow stain under setting [2] was 0.02 and the Yellow stain under setting [1] is 0.03.

Take `CCCCCCCCC(CCCCCC)COc1ccc(NS(=O)(=O)c2ccc(Cl)cc2Cl)cc1S(=O)(=O)NC(C)c1n[nH]c2cc(C(C)(C)C)nn12` (centres unmarked) [MC-20]: the Yellow stain under setting [2] worked out at 0.02.

Regarding `CCCCCCCCOC(=O)Nc1cccc(S(=O)(=O)Nc2cccc(S(=O)(=O)NC(C)(C)c3n[nH]c4cc(C(C)(C)C)nn34)c2)c1` [MC-37], the Yellow stain under setting [1] amounted to 0.01.

Regarding `CCCCCCCCCCCCCCCCOc1cccc(S(=O)(=O)Nc2ccc(C(C)(C)C)c(S(=O)(=O)Nc3ccc(Cl)c(-c4n[nH]c5cc(C(C)C)nn45)c3Cl)c2)c1` [MC-38], the Yellow stain under setting [1] was found to be 0.02.

As to `CCCCCCCCCCCCOc1ccc(S(=O)(=O)NC(C)c2n[nH]c3cc(C(C)(C)C)nn23)cc1NS(=O)(=O)c1ccc(Cl)cc1` (centres unmarked) [MC-39], the Yellow stain under setting [1] was 0.01.

Regarding `CCCCCCCCCCCCOc1cc(NS(=O)(=O)c2ccc(C)cc2)ccc1S(=O)(=O)NC(C)c1n[nH]c2cc(C(C)(C)C)nn12` (centres unmarked) [MC-40], the Yellow stain under setting [1] turned out to be 0.01.

With `CCCCCCCCCCCCCCCCOc1ccc(NS(=O)(=O)c2cc(C(=O)N3CCOCC3)cc(C(=O)N3CCOCC3)c2)cc1S(=O)(=O)NC(C)c1n[nH]c2cc(C(C)(C)C)nn12` (centres unmarked) [MC-46], the Yellow stain under setting [2] came to 0.01.

`CCCCCCCCCCCCCCCCCCOc1ccc(NS(=O)(=O)c2cc(C(=O)OC3CCCCC3)cc(C(=O)OC3CCCCC3)c2)cc1S(=O)(=O)NC(C)c1n[nH]c2cc(C(C)(C)C)nn12` (centres unmarked) [MC-58]: the Yellow stain under setting [1] is 0.01.
